40 compounds from PubChem BioAssay AID493014 (National Center for Advancing Translational Sciences (NCATS), 2011) can be followed below.

The list shows a part of the results. The main result of the screen is listed elsewhere. These columns were measured beside it and carry no call. Most of these compounds were active or inconclusive in the main read-out, so they are no random draw. Words in brackets tell the shape of the fitted curve; partial curves, single points and poor fits give uncertain potencies.

This test is described as follows: qHTS Assay to Find Inhibitors of Chronic Active B-Cell Receptor Signaling. Conditions: ABC-DLBCL IkBa-CBG/CBR reporter, luminescence ratio (green luciferase fused to IkBa over red control in TMD8 lymphoma cells), 4 h. In short, it runs like this:
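Concentration-response series (up to 46 uM) were applied to TMD8 dual-reporter cells for 4 h at 37C with doxycycline. Green/red ratio, after filter-overlap correction, defined %Activity; red signal alone was normalised to basal cells and zero luminescence.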
For orientation: Quantitative high-throughput screening tests each substance at several concentrations.

[1] abbreviates: measured here: CBR red luminescence, cell number.
Where [2] appears, read: measured here: IkBa-CBG green luminescence.

Regarding `Oc1cccc(/C=N/N2CCN(c3ccccn3)CC2)c1`, the AC50 (commonly the concentration at which the activity in the assay is half-maximal) under setting [1] was 15.8 µM [falling, single point].

For `CC(C)OC(=O)c1c2c(n3ccccc13)C(=O)c1ccccc1C2=O`, the AC50 under setting [1] is 16.4 µM [falling, single point]. On to `CCCCn1c(-c2csc(C(C)C)c2)n[nH]c1=S`, for which the AC50 is, setting by setting: under setting [1], 13 µM [rising, partial curve, poor fit]; under setting [2], 23.1 µM [falling, partial curve, poor fit]. Turning to `CN(C)CCNC(=O)c1cc(Sc2ccc(F)cc2)nc2ccccc12`, the AC50 under setting [1] was 14.1 µM [falling, single point]. On the same count and under the same terms, the figure for `COc1ccc(C2(C)NC(=O)N(CC(=O)c3cc(C)n(C4CC4)c3C)C2=O)cc1OC` (configuration not stated) is 3.66 µM [rising, single point]; for `Cc1[nH]c2c(C(=O)N3CCCC(CCC(=O)NCc4ccccc4F)C3)cccc2c1C` (configuration not stated) it is 25.1 µM [falling, single point]; for `CC(C)c1ccc(NC(=S)NC2CCN(Cc3ccccc3)CC2)cc1` it is 4.11 µM [rising, single point]. On the same count and under the same terms, under `Cc1cc(O)c(C(C[N+](=O)[O-])c2ccc(Cl)cc2)c(=O)o1` (configuration not stated) stands 0.206 µM [falling, full curve, poor fit].

`Cn1cc(Cl)c(C(=O)Nc2cccc(Cl)c2Cl)n1`: under setting [1], the AC50 is 2.31 µM [falling, full curve]. Same read-out and setting: the figure for `COc1ccc(-c2nn(-c3ccccc3)cc2C(=O)Nc2ccc(C(=O)O)cc2)cc1` is 5.01 µM [falling, single point]; for `Cc1nc(NC(=S)NC(=O)c2ccccc2)sc1C` it is 4.47 µM [falling, full curve]; for `O=C(c1cccs1)c1ccc(-c2cccs2)s1` it is 7.08 µM [falling, partial curve]. As for `COc1ccccc1N(CC(=O)NCc1ccccn1)S(C)(=O)=O`, under setting [1], the half-maximal activity concentration (AC50) was 6.51 µM [falling, single point]. On the same count and under the same terms, under `Cc1cccc(CSc2nnnn2-c2ccccc2)c1` stands 3.26 µM [falling, single point]; under `O=C(NCC1COc2ccccc2O1)c1cccs1` (configuration not stated), 12.6 µM [rising, partial curve, poor fit]; under `CC(C)=C1C2CCC1C1C(=O)N(c3nc(-c4ccccc4)c(C)s3)C(=O)C21` (configuration not stated), 1.3 µM [rising, full curve]. Same read-out and setting: under `O=C(c1ccc(Br)s1)N1CCN(c2ncccn2)CC1` stands 1.3 µM [rising, full curve].

On to `COc1ccc(NC(=O)c2ccc(NC(=O)C3CC3)cc2)cc1`, for which, under setting [1], the half-maximal activity concentration (AC50) is 3.98 µM [rising, full curve]. The same measure, in the same setting: the figure for `CCCn1nc(C(=O)Nc2ccc3c(c2)OCCO3)c2ccccc2c1=O` is 29.1 µM [falling, single point]; for `O=C(CN1CCN(C2CCCCC2)CC1)Nc1ccccc1-c1ccccc1` it is 4.11 µM [falling, full curve, poor fit]; for `CC1CC(C)CN(CCCNC(=O)c2ccc3c(c2)N(Cc2ccccc2)C(=O)c2ccccc2S3=O)C1` (configuration not stated) it is 0.1 µM [falling, full curve, poor fit]. Turning to `Cc1ccc(-c2csc(C3=C(O)CN(NC(=O)c4ccco4)C3=N)n2)cc1`, the AC50 under setting [1] is 8.91 µM [rising, partial curve, poor fit]. With `C/C(=N\OC(=O)Nc1ccccc1)c1cnn(-c2cc(C(F)(F)F)cc(C)n2)c1C`, the AC50 under setting [1] was 11.2 µM [rising, partial curve, poor fit]. On the same count and under the same terms, under `CN(CC(=O)Nc1c(Cl)cccc1Cl)C(=O)C1=COCCO1` stands 20.6 µM [rising, single point]; under `COc1cccc(CN2CCN(Cc3ccc(O)cc3)CC2CCO)c1` (configuration not stated), 3.55 µM [rising, full curve, poor fit].

Consider `CN(Cc1ccccc1)C(=O)c1[nH]cnc1C(=O)Nc1ccc(Cl)cc1`, for which the AC50 under setting [1] is 0.651 µM [rising, full curve, poor fit].

With `CN(C)c1ccnc(-n2cccc2/C=N/OCc2ccccc2)c1C#N`, under setting [1], the half-maximal activity concentration (AC50) is 4.61 µM [rising, full curve, poor fit]. Turning to `COc1ccc(CC(=O)O/N=C(\N)c2ccccc2)cc1OC`, under setting [1], the concentration at half-maximal activity (AC50) was 0.501 µM [rising, full curve, poor fit]. The same measure, in the same setting: under `COc1cc(CNn2c(C)n[nH]c2=S)cc(Cl)c1OCc1ccc(F)cc1` stands 0.0651 µM [rising, full curve, poor fit]; under `CCN1CCN(Cc2ccc(NC(=O)c3cc(NC(=O)c4cc5cccc(OC)c5o4)cc(OC)c3)cc2C(F)(F)F)CC1`, 11.2 µM [falling, partial curve].

For the compound `CC(=O)Nc1ccc(S(=O)(=O)NNC(=O)c2cccc(Cl)c2)cc1`, the AC50 under setting [1] was 0.282 µM [rising, full curve, poor fit]. Same read-out and setting: under `COc1ccc(CCNC(=O)c2ccc3nc(-c4ccco4)c(-c4ccco4)nc3c2)cc1OC` stands 12.6 µM [falling, partial curve]; under `O=C(CCCCCNC(=S)Nc1ccc(Cl)cc1)C[N+](=O)[O-]`, 10 µM [falling, partial curve].

On to `CC(NCCC(c1ccccc1)c1ccccc1)c1ccccc1` (configuration not stated), for which the concentration at half-maximal activity (AC50) reads like this: under setting [1], 11.2 µM [falling, partial curve, poor fit]; under setting [2], 15.8 µM [rising, partial curve, poor fit]. Take `Cc1cc(C)cc(N2C(=O)CC(N(C(=O)c3ccco3)c3cc(C)cc(C)c3)C2=O)c1` (configuration not stated): the half-maximal activity concentration (AC50) under setting [1] was 14.6 µM [rising, partial curve, poor fit]. Same read-out and setting: under `Cc1ccc(S(=O)(=O)c2ncccc2[N+](=O)[O-])cc1` stands 20 µM [falling, partial curve, poor fit].

On to `O=C(Nc1ccc(Cl)cc1C(=O)NCCN1CCOCC1)c1ccc(Cl)cc1Cl`, for which, under setting [1], the AC50 is 6.51 µM [rising, single point]. `CCN(c1ccccc1)c1ncnc2c1cnn2-c1ccc(OC)cc1`: the AC50 under setting [1] is 11.2 µM [rising, partial curve, poor fit].

For `CC(C)(C)c1ccc(C(=O)NCC(=O)NCC(C)(C)N2CCOCC2)cc1`, under setting [1], the AC50 is 6.51 µM [rising, partial curve, poor fit]. Still for that read-out and setting: under `CC(C)CC(=O)Nc1ccccc1N1CCN(C(=O)c2ccccc2)CC1` stands 29.1 µM [falling, single point].
